According to article PMC6495647:
These are yes or no findings as the source states them, for the method shown.

Amino acid sequences for entries named in this document (tags omitted). Residues count along the entry.
UniProt P02769, residues 25-607: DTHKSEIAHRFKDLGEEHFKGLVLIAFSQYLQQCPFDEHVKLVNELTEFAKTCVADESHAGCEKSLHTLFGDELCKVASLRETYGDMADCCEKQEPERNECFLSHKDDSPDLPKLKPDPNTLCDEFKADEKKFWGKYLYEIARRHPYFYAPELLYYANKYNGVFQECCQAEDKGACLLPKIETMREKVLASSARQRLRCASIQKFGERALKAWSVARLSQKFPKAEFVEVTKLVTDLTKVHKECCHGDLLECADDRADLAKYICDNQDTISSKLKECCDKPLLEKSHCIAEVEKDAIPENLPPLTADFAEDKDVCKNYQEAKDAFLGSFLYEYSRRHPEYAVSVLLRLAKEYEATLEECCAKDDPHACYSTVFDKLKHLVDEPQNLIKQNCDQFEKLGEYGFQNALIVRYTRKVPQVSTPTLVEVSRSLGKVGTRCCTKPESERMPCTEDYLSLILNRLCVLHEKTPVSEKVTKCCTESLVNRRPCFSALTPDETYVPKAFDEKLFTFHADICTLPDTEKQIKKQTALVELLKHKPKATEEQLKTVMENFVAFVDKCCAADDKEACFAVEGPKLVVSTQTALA

Legend:
[1] = target: MucB protein (plasmid pKM101 (host species not stated)) (UniProt P07375); experiment: SEC; refolding of denatured MucB on Superdex 200 HR 10/30 in NAT refolding buffer (20 mM HEPES, 100 mM monopotassium glutamate, 500 mM L-arginine, 10% glycerol, 2 mM DTT, 0.1 mM EDTA, 0.5% Tween 20, pH 7.3); LMW peak; both purified
[2] = target: Bovine serum albumin (bovine) (UniProt P02769); experiment: SPR; BIAcore 2000; BSA, RecA, MucA’ or β amine-coupled on CM5 chip in four flow cells; refolded MucB (usually 0.1 μM) injected at 30 μl/min in HBS with 1% Surfactant P20; BSA cell subtracted; 25 °C; both purified

B1: MucB protein (enzyme, UniProt P07375 1-420)
chain: MFALIDVNGMYASCEQAFRPDLANRAVAVLSNNDGNIVARNYLAKKAGLKMGDPYFKVRPIIERHNIAIFSSNYTLYASMSARFAAVVESLASHVEQYSIDELFVDCKGITAAMSLDAFGRQLREEVRRHTTLVCGVGIARTKTLAKLCNHAAKTWPATGGVVALDDGARLKKLMSILPVAEVWGVGHRTEKALATMGIKTVLDLARADTRLIRKTFGVVLERTVRELRGEACFSLEENPPAKQQIVVSRSFGQRVETLTDMQQAVTGFAARAAEKLRNERQYCRVISVFIRTSPYSVRDTQYANQATEKLTVATQDSRTIIQAAQALARIWREDIAYAKAGVMLADFSGKEAQLDLFDSATPSAGSEALMAVLDGINRRGKNQLFFAGQGIDNSFAMRRQMLSPDYTTDWRSIPIATIK
binding [1]: no binding (tested: about 25 μg/ml) | binding [2]: no binding (tested: MucB usually 0.1 μM)
